From PubChem BioAssay AID2685 (National Center for Advancing Translational Sciences (NCATS), 2010)
The other results are listed elsewhere or left out. The main result of the screen is listed elsewhere. These columns were measured beside it and carry no call. Most of these compounds were active or inconclusive in the main read-out, so they are no random draw. Words in brackets tell the shape of the fitted curve; partial curves, single points and poor fits give uncertain potencies.

Assay: qHTS Assay for Lipid Storage Modulators in Drosophila S3 Cells;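 on cell number change: cells counted by Cell Tracker Red CMTPX staining in the red channel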
Conditions: BODIPY lipid droplet fluorescence, 18-24 h; for cell number change: measured here: cell count max response, cells fed with added oleic acid
How it was run: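 Drosophila S3 cells loaded with oleic acid (400 uM, as added) and compounds at several concentrations; lipid droplets imaged by 488-nm laser-scanning cytometry, 500–530 nm intensity and object ratio to cell channel. Percent activity normalized to 20 uM Triacsin C.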

[1] = measured here: lipid fluorescence (Fed channel) AC50, cells fed with added oleic acid
[2] = measured here: cell number channel AC50, cells fed with added oleic acid

SMILES	cell number change [%]	AC50 [1]	AC50 [2]
O=C(CSc1nnc(-c2ccco2)o1)Nc1cccc([N+](=O)[O-])c1	-12.3	0.112 µM [falling, full curve, poor fit]	–
Cc1cccc(C)c1NC(=O)COn1nnc2ccc(C(F)(F)F)cc21	22.5	2.59 µM [rising, partial curve, poor fit]	–
Cc1c(OCc2ccccc2)c(=O)ccn1Cc1ccc(F)cc1	14	–	–
CCn1nc(C)cc1-c1n[nH]c(=S)n1N	21.9	3.26 µM [falling, partial curve]	–
O=C(O)c1cccnc1Sc1ccc(Cl)cc1	-33.7	4.61 µM [falling, full curve, poor fit]	4.61 µM [falling, full curve]
Cc1ccc(S(=O)(=O)N2CCCCC2)cc1NS(=O)(=O)c1ccc(Cl)c(C(=O)O)c1	-15	–	–
CC1CN(C(=O)CCC(=O)NCc2ccccn2)c2ccccc2O1 (centres undefined)	-8.07	4.61 µM [rising, single point]	–
O=C(NCc1ccccn1)C(=O)N/N=C/c1ccccc1O	-22.2	29.1 µM [falling, single point]	–
O=S(=O)(NCc1ccc2c(c1)OCO2)c1cnc[nH]1	0.506	–	–
O=C(c1ccc2c(c1)OCO2)N(c1ccc(Cl)cc1)C1C=CS(=O)(=O)C1 (centres undefined)	6.88	–	–
Cc1cccc(C(=O)Nc2cccc(C(=O)N/N=C/c3ccncc3)c2)c1	8.17	10.3 µM [rising, single point]	–
COc1ccccc1-c1nnn(C/C(N)=N/O)n1	63.2	0.731 µM [falling, full curve, poor fit]	29.1 µM [rising, single point]
COC(=O)C1=C(C)Nc2ccc(C)cc2S1	83.5	18.4 µM [rising, single point]	2.31 µM [rising, full curve]
CCOc1ccc(C(=O)NC2CCN(C(=O)N3CCCC3)CC2)cc1	–	6.51 µM [falling, single point]	–
CCN(CC)C(=O)c1[nH]cnc1C(=O)Nc1ccc(OC)cc1	9.6	6.51 µM [rising, full curve, poor fit]	–
COc1cccc(CNC(=O)CCS(=O)(=O)c2ccc3c(c2)CC(C)N3C(=O)C2CC2)c1 (centres undefined)	21.7	29.1 µM [rising, single point]	–
COc1ccc(S(=O)(=O)N2CCC(C(=O)NCCC(=O)NCc3cccc(OC)c3)CC2)cc1	-10.2	0.58 µM [rising, single point]	–
CC1CCCCC1NC(=O)c1cc2ccccc2o1 (centres undefined)	14.1	16.4 µM [rising, partial curve]	–

2 entries from above, in markdown.

| SMILES | cell number change [%] | AC50 [1] | AC50 [2] |
| --- | --- | --- | --- |
| CCn1nc(C)cc1-c1n[nH]c(=S)n1N | 21.9 | 3.26 µM [falling, partial curve] | – |
| O=C(O)c1cccnc1Sc1ccc(Cl)cc1 | -33.7 | 4.61 µM [falling, full curve, poor fit] | 4.61 µM [falling, full curve] |
